Test results: US20130323167A1, “DETECTING AND TREATING SOLID TUMORS THROUGH SELECTIVE DISRUPTION OF TUMOR VASCULATURE” (THE JOHNS HOPKINS UNIVERSITY, priority 2010, published 2013)
Some results were stated once for a whole list of compounds, not compound by compound.

Test system: orthotopic GL261 brain tumor
Assay: Treatment of orthotopic GL261 brain tumor model (survival)
Format: in vivo, C57BL6 mice
Conditions: single agent, single dose day 12

## TNF-α
  survival after tumor implantation: ≤ 50 days
